Source: paper PMC8132058

Amino acid sequences for entries named in this document (tags omitted).
UniProt Q13620: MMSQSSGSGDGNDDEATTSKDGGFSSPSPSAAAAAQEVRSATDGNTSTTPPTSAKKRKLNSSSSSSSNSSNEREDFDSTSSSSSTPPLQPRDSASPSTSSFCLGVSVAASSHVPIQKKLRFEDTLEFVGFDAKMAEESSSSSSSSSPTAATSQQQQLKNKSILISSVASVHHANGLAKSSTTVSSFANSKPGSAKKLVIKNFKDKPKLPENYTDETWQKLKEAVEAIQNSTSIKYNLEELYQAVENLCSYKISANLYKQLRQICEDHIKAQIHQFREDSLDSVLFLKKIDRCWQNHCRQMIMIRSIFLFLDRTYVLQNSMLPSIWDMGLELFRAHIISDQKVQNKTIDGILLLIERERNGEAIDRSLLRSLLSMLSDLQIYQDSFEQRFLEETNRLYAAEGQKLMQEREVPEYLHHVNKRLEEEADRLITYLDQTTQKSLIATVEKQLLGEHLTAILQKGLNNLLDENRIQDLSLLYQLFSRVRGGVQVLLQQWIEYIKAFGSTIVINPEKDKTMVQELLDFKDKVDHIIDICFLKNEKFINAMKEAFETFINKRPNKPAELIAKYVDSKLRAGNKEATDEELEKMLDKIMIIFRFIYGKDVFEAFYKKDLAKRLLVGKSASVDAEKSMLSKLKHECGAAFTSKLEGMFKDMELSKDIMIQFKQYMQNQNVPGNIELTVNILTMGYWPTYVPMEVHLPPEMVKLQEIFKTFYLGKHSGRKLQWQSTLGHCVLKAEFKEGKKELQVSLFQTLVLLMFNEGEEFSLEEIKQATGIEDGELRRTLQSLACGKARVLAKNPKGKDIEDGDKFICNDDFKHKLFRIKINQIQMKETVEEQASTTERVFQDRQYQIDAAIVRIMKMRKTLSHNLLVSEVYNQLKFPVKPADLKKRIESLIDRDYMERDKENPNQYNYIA
UniProt O95863: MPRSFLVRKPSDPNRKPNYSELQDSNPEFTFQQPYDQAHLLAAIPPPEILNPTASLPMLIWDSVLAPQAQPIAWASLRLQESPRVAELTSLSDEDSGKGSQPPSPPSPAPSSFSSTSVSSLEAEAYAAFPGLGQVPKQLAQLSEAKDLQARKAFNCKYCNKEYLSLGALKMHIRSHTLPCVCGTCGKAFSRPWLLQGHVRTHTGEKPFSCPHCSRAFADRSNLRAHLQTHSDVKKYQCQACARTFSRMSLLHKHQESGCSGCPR
UniProt O15379: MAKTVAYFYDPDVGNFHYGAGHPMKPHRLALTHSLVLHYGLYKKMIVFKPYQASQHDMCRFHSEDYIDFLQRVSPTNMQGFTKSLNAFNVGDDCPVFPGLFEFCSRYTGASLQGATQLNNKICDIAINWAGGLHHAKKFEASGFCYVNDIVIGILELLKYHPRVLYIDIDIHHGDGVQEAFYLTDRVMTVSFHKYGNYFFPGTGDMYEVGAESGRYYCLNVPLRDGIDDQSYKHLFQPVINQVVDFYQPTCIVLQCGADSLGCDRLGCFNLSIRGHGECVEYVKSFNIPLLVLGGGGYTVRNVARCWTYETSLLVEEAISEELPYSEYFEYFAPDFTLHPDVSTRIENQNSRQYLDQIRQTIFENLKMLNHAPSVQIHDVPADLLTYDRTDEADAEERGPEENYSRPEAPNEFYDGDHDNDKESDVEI
UniProt Q13547: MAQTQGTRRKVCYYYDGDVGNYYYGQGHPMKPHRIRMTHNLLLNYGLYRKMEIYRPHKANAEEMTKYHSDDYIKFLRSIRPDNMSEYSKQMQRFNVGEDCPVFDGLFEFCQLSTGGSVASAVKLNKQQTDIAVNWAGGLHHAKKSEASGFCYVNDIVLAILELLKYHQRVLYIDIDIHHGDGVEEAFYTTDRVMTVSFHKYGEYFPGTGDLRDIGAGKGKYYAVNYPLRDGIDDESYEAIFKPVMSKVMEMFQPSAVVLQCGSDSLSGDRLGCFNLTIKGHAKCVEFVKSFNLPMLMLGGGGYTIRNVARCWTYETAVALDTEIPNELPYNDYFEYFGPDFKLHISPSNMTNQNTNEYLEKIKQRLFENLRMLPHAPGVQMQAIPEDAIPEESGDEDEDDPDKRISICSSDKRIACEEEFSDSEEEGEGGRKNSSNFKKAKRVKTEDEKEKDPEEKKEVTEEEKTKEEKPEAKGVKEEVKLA
UniProt Q92769: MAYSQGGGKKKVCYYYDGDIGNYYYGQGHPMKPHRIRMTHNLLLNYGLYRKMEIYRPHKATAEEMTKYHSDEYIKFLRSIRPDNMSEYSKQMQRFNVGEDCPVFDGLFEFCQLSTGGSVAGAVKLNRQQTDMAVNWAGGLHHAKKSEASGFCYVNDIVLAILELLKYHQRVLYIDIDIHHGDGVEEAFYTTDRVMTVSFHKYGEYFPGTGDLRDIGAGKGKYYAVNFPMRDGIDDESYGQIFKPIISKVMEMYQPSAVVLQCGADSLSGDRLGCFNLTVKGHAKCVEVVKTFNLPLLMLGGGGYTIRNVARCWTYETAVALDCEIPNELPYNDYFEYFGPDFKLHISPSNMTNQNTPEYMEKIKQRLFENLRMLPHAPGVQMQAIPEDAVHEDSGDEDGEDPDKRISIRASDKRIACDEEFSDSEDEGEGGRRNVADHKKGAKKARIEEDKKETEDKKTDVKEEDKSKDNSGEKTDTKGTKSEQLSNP
UniProt Q09028: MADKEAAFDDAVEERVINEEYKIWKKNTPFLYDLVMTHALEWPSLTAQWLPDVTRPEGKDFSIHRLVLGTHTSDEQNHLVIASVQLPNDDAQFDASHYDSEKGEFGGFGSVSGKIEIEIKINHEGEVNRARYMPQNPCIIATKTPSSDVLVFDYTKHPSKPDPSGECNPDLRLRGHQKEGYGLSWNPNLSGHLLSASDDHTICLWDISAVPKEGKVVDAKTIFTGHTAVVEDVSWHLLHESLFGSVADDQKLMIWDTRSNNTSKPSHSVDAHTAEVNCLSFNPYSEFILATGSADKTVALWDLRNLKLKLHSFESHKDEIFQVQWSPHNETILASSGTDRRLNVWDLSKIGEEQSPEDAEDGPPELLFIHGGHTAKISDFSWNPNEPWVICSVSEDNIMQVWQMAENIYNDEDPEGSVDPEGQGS
UniProt Q16531: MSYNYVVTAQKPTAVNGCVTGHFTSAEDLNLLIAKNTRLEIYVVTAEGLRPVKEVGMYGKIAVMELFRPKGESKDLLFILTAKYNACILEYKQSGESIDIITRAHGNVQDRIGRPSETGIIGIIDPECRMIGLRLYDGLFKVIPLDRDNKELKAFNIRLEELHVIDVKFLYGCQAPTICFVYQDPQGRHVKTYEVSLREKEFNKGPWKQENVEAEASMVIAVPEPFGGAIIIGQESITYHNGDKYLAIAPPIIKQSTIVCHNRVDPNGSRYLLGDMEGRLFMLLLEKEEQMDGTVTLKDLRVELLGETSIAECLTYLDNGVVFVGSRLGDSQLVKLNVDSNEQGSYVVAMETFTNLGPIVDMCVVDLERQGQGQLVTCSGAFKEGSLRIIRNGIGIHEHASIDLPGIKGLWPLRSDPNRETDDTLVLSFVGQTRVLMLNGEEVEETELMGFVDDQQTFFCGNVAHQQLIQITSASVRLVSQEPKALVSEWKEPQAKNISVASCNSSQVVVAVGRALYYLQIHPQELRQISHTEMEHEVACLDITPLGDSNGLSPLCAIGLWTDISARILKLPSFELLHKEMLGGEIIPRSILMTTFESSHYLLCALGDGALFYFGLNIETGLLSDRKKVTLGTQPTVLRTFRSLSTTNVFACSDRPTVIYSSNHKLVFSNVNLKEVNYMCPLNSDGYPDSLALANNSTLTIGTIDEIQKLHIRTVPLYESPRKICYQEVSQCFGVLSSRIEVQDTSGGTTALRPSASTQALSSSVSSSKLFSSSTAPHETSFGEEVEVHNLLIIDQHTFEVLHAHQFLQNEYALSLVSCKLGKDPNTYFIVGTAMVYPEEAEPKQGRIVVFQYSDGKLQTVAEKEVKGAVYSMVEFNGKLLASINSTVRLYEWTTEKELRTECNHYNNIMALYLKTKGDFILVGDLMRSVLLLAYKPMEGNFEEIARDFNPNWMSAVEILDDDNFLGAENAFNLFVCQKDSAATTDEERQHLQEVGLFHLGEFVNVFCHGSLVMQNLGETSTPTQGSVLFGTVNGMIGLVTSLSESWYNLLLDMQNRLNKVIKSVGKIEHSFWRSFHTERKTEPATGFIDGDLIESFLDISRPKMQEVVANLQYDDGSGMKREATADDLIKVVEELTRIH

B1: SAP30 (endogenous) (protein, UniProt O75446 1-220)
chain: MNGFTPDEMSRGGDAAAAVAAVVAAAAAAASAGNGTGAGTGAEVPGAGAVSAAGPPGAAGPGPGQLCCLREDGERCGRAAGNASFSKRIQKSISQKKVKIELDKSARHLYICDYHKNLIQSVRNRRKRKGSDDDGGDSPVQDIDTPEVDLYQLQVNTLRRYKRHFKLPTRPGLNKAQLVEIVGCHFRSIPVNEKDTLTYFIYSVKNDKNKSDLKVDSGVH

Tests used:
[1] = molecular target: FLAG-CUL4B (UniProt Q13620); assay: affinity purification with mass spectrometry; whole-cell extracts of FLAG-CUL4B-expressing MCF-7 cells on anti-FLAG M2 affinity columns, eluted with FLAG peptide; SDS-PAGE, silver stain, LC-MS/MS; eluates also western blotted
[2] = molecular target: FLAG-Snail (UniProt O95863); assay: affinity purification with mass spectrometry; immunoaffinity purification of Snail- or ZEB2-associated proteins from MDA-MB-231 cells; silver stain and mass spectrometry; column-bound proteins western blotted

| Molecule | binding [1] | binding [2] |
| --- | --- | --- |
| HDAC3 (endogenous) (from UniProt O15379 1-428) (enzyme) | binds | – |
| CUL4B (endogenous) (from UniProt Q13620 1-913) | – | binds |
| HDAC1 (endogenous) (from UniProt Q13547 1-482) (enzyme) | binds | binds |
| HDAC2 (endogenous) (from UniProt Q92769 1-488) (enzyme) | binds | binds |
| RbAp48 (endogenous) (from UniProt Q09028 1-425) | binds | binds |
| DDB1 (endogenous) (from UniProt Q16531 1-1140) | binds | binds |
| B1 | binds | – |

These are yes or no findings as the source states them, for the method shown. In cells and extracts the contact can be indirect. These calls come from enrichment with a bait or labelling near it, and not all partners need be listed.
